PubChem BioAssay AID1224828, NIAID, 2016
In all, the deposit lists about 17,000 reagents; below is a random part of them. In the full data, 762 (4.5%) were called active. 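Active calls include both raised and lowered p65 entry, mostly lowered; wells with fewer than 50 cells lack a z-score.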 The raw values are shown without normalisation. A number with no mark means an inactive call.

Purpose: 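Regulators linking TLR4 signalling to p65 nuclear translocation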 (primary screen)
Cell system: mouse RAW264.7 G9 macrophage reporter cells (GFP-p65, Tnf promoter-mCherry)
Reagents: siRNA pool against mouse genes, 100 nM
Time to read-out: 2 days siRNA transfection, then 40 min LPS before fixation
Treatment: LPS (Salmonella minnesota R595) at 10 ng/ml
Measured: 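Microscopy ratio of nuclear to perinuclear-ring GFP-p65 signal, scaled to the plate median; gene score is the average of two replicate robust z-scores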
Scale: p65 translocation robust z-score: higher = more nuclear NF-kappaB p65 after LPS than the plate median; nuclear/cytoplasmic p65 ratio: higher = more nuclear NF-kappaB p65
Hit rule: 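Active if robust z is above 3.3 (negative regulators) or below -1.56, the Tlr4 control median (positive regulators); activity score 50 or more; control wells not called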
Meaning of the calls: active = hit (p65 shift raised or lowered); inactive = no clear change

Prkcb gave p65 translocation robust z-score 0.15; nuclear/cytoplasmic p65 ratio, rep 1 = 1.61; nuclear/cytoplasmic p65 ratio, rep 2 = 1.39; low cell count flag enough cells to score.
Clrn1 gave p65 translocation robust z-score -0.11; nuclear/cytoplasmic p65 ratio, rep 1 = 1.54; nuclear/cytoplasmic p65 ratio, rep 2 = 1.45; low cell count flag enough cells to score.
With knock-down of Klf11, the screen gave p65 translocation robust z-score 1.14; nuclear/cytoplasmic p65 ratio, rep 1 = 1.65; nuclear/cytoplasmic p65 ratio, rep 2 = 1.71; low cell count flag enough cells to score.
Meis2 showed p65 translocation robust z-score 0.97; nuclear/cytoplasmic p65 ratio, rep 1 = 1.53; nuclear/cytoplasmic p65 ratio, rep 2 = 1.51; low cell count flag enough cells to score.
Silencing of Arsk came out at: p65 translocation robust z-score -0.1; nuclear/cytoplasmic p65 ratio, rep 1 = 1.31; nuclear/cytoplasmic p65 ratio, rep 2 = 1.21; low cell count flag enough cells to score.
Against Sack1h the deposit lists nuclear/cytoplasmic p65 ratio, rep 1 = 1.21; nuclear/cytoplasmic p65 ratio, rep 2 = 1.4; low cell count flag fewer than 50 cells per well; well left out of scoring.
With knock-down of Capn3, the screen gave p65 translocation robust z-score 1.09; nuclear/cytoplasmic p65 ratio, rep 1 = 1.73; nuclear/cytoplasmic p65 ratio, rep 2 = 1.82; low cell count flag enough cells to score.
For Islr, the entry reads p65 translocation robust z-score -0.12; nuclear/cytoplasmic p65 ratio, rep 1 = 1.46; nuclear/cytoplasmic p65 ratio, rep 2 = 1.48; low cell count flag enough cells to score.
Depletion of Misp resulted in: p65 translocation robust z-score -0.98; nuclear/cytoplasmic p65 ratio, rep 1 = 1.28; nuclear/cytoplasmic p65 ratio, rep 2 = 1.42; low cell count flag enough cells to score.
For Ahcyl1, the entry reads p65 translocation robust z-score 0.66; nuclear/cytoplasmic p65 ratio, rep 1 = 1.78; nuclear/cytoplasmic p65 ratio, rep 2 = 1.66; low cell count flag enough cells to score.
Against Ptprm, the entry reads p65 translocation robust z-score 0.58; nuclear/cytoplasmic p65 ratio, rep 1 = 1.58; nuclear/cytoplasmic p65 ratio, rep 2 = 1.61; low cell count flag enough cells to score.
Knock-down of Snai3 came out at: nuclear/cytoplasmic p65 ratio, rep 1 = 1.31; nuclear/cytoplasmic p65 ratio, rep 2 = 1.08; low cell count flag fewer than 50 cells per well; well left out of scoring.
Depletion of Hmgcr came out at: p65 translocation robust z-score -0.56; nuclear/cytoplasmic p65 ratio, rep 1 = 1.35; nuclear/cytoplasmic p65 ratio, rep 2 = 1.32; low cell count flag enough cells to score.
For Gng5, the values are p65 translocation robust z-score 0.63; nuclear/cytoplasmic p65 ratio, rep 1 = 1.76; nuclear/cytoplasmic p65 ratio, rep 2 = 1.62; low cell count flag enough cells to score.
Knock-down of Adam8 gave: p65 translocation robust z-score 0.32; nuclear/cytoplasmic p65 ratio, rep 1 = 1.6; nuclear/cytoplasmic p65 ratio, rep 2 = 1.79; low cell count flag enough cells to score.
Against 4930542C12Rik the deposit lists p65 translocation robust z-score 0.1; nuclear/cytoplasmic p65 ratio, rep 1 = 1.43; nuclear/cytoplasmic p65 ratio, rep 2 = 1.32; low cell count flag enough cells to score.
Depletion of Bpifb1 resulted in: nuclear/cytoplasmic p65 ratio, rep 1 = 1.28; nuclear/cytoplasmic p65 ratio, rep 2 = 1.08; low cell count flag fewer than 50 cells per well; well left out of scoring.
With knock-down of Nhlh1, the record shows p65 translocation robust z-score -1.35; nuclear/cytoplasmic p65 ratio, rep 1 = 1.25; nuclear/cytoplasmic p65 ratio, rep 2 = 1.25; low cell count flag enough cells to score.
After knock-down of Abca9 the results were p65 translocation robust z-score 0.84; nuclear/cytoplasmic p65 ratio, rep 1 = 1.76; nuclear/cytoplasmic p65 ratio, rep 2 = 1.79; low cell count flag enough cells to score.
For Blk, the entry reads p65 translocation robust z-score 0.33; nuclear/cytoplasmic p65 ratio, rep 1 = 1.78; nuclear/cytoplasmic p65 ratio, rep 2 = 1.39; low cell count flag enough cells to score.
Mrps34 scored p65 translocation robust z-score 0.69; nuclear/cytoplasmic p65 ratio, rep 1 = 1.95; nuclear/cytoplasmic p65 ratio, rep 2 = 1.64; low cell count flag enough cells to score.

Look-ups from above.
Mrps34, nuclear/cytoplasmic p65 ratio, rep 1: 1.95
Under “nuclear/cytoplasmic p65 ratio, rep 2”, 4930542C12Rik has 1.32
Value of Sack1h in “low cell count flag”: fewer than 50 cells per well; well left out of scoring
